Results reported in publication PMC2253627.
These are yes or no findings as the source states them, for the method shown. For part of these data: Binding seen in cells or lysates may run through a third protein. For part of these data: Binding can be weak; no strength is given. For part of these data: Tags and fused reporters may be left off the sequences shown.

By UniProt entry, the sequences of proteins in these tests, tags left out.
UniProt O88751: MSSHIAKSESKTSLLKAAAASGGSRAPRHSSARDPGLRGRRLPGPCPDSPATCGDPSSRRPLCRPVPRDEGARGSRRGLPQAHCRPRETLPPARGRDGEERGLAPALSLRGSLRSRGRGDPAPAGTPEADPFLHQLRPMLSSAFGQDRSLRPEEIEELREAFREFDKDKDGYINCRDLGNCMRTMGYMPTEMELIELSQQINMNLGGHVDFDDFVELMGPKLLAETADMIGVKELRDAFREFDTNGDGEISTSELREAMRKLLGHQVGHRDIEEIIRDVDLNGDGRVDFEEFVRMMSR

Tests used:
[1] = target: T1, Jacob (endogenous, rat brain) (rat (endogenous in rat brain)) (UniProt Q9EPI6); assay: co-IP; soluble rat brain protein fraction (rat cortex), Jacob antibody JB-150 coupled to Protein-A sepharose; blot for Importin-α1
T1 sequence: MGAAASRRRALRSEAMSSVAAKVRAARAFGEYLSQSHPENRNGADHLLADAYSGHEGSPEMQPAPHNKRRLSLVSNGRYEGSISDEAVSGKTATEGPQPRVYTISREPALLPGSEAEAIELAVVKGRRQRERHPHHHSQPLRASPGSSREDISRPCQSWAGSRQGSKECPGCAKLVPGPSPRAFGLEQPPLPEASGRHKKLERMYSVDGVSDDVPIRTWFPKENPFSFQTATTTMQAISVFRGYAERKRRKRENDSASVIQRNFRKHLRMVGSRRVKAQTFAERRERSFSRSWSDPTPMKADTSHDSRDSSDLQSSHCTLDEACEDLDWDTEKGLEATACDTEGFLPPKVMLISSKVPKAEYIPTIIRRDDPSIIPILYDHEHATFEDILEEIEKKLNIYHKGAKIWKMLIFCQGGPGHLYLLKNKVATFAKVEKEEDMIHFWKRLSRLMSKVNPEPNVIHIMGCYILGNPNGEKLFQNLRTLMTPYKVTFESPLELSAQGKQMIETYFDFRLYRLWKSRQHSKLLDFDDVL

[2] = target: Caldendrin (entire open reading frame, yeast two-hybrid bait in pAS2-1) (UniProt O88751); assay: two-hybrid; yeast; Caldendrin bait in pAS2-1, rat brain cDNA library in pACT2; deletion and point mutation constructs cotransformed; β-galactosidase colony lift assay scored by time to blue colonies (1 h, 3 h, 6 h)
[3] = target: GST-Importin-α1; assay: pull-down; GST-Importin-α1 pull-down of myc/his-tagged Jacob extracted from transfected HEK-293 cells; only the target purified

For Importin-α1 (endogenous, rat brain), the binding [1] was “binds”.

In the case of “Jacob F241E (yeast two-hybrid construct) (from UniProt Q9EPI6)”, the binding [2] is reported as “no binding”.

B1: myc/his-tagged ΔNLS-Jacob (protein, UniProt Q9EPI6)
chain: MGAAASRRRALRSEAMSSVAAKVRAARAFGEYLSQSHPENRNGADHLLADAYSGHEGSPEMQPAPHNKRRLSLVSNGRYEGSISDEAVSGKTATEGPQPRVYTISREPALLPGSEAEAIELAVVKGRRQRERHPHHHSQPLRASPGSSREDISRPCQSWAGSRQGSKECPGCAKLVPGPSPRAFGLEQPPLPEASGRHKKLERMYSVDGVSDDVPIRTWFPKENPFSFQTATTTMQAISVFRGYAEENDSASVIQRNFRKHLRMVGSRRVKAQTFAERRERSFSRSWSDPTPMKADTSHDSRDSSDLQSSHCTLDEACEDLDWDTEKGLEATACDTEGFLPPKVMLISSKVPKAEYIPTIIRRDDPSIIPILYDHEHATFEDILEEIEKKLNIYHKGAKIWKMLIFCQGGPGHLYLLKNKVATFAKVEKEEDMIHFWKRLSRLMSKVNPEPNVIHIMGCYILGNPNGEKLFQNLRTLMTPYKVTFESPLELSAQGKQMIETYFDFRLYRLWKSRQHSKLLDFDDVL
B1 was tested, and the binding [3] was “no binding”.
